These are yes or no findings as the source states them, for the method shown. Some binding calls cover weakened binding; strength is not graded here.
Assays:
[1] = molecular target: T1, RB-related protein (UniProt Q9LKZ3); test: yeast two-hybrid screen (DRL1 bait, cell suspension cDNA library), confirmed by retransformation; 2 clones
T1 sequence (looked up): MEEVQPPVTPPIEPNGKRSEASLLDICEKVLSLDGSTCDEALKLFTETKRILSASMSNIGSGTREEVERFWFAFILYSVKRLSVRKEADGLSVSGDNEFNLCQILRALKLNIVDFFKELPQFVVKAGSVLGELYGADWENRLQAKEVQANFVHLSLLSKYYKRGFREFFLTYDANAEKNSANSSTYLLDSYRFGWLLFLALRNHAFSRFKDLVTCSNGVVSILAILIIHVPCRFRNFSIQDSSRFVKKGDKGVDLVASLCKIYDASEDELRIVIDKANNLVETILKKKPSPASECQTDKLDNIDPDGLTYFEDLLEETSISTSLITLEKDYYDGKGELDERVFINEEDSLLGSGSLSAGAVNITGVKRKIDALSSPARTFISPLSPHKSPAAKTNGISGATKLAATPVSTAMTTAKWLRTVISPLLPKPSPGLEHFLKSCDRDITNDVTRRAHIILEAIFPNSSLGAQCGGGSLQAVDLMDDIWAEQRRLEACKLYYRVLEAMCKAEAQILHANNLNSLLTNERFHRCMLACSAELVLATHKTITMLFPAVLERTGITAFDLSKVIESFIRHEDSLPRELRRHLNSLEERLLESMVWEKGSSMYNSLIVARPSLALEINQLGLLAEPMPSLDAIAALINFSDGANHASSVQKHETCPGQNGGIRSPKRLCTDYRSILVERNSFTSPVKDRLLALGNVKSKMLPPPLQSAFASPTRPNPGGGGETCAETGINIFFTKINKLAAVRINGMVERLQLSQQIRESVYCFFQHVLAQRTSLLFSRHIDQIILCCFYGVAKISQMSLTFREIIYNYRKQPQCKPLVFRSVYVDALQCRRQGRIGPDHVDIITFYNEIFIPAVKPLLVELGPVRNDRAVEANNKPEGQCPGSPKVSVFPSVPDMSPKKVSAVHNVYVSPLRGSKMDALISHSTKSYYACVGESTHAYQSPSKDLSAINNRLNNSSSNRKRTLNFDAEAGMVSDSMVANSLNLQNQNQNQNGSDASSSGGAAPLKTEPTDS

Chains of the proteins cited; added tags and fusions are not shown. Lines headed by an entry give the natural chain unless they say otherwise; changes in a name come on top.
UniProt P04386: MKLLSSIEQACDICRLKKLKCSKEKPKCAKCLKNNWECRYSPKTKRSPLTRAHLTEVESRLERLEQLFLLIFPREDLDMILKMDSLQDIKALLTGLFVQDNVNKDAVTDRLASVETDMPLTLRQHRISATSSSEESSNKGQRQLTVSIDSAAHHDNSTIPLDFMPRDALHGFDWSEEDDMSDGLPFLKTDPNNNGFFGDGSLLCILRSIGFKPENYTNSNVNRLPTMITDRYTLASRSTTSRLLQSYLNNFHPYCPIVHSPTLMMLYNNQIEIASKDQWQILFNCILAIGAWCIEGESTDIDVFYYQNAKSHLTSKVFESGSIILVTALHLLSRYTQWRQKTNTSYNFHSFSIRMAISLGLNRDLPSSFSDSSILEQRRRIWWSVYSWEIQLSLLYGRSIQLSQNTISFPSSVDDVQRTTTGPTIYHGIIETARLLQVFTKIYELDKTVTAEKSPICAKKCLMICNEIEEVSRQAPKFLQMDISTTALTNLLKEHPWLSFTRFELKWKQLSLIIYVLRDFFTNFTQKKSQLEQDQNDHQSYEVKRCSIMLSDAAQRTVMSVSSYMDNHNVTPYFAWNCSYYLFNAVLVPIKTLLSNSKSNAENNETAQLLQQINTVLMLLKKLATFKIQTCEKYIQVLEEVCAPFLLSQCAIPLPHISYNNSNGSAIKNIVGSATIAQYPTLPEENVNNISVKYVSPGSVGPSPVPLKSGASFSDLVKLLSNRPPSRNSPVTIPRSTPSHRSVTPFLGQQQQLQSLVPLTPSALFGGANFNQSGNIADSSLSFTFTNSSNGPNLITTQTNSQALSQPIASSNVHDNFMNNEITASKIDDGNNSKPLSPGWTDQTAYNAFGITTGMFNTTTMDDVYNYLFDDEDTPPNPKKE

[2] = molecular target: T2, ATHB12 (UniProt Q9M276); test: yeast two-hybrid screen (DRL1 bait, cell suspension cDNA library), confirmed by retransformation; 1 clone
T2 sequence (looked up): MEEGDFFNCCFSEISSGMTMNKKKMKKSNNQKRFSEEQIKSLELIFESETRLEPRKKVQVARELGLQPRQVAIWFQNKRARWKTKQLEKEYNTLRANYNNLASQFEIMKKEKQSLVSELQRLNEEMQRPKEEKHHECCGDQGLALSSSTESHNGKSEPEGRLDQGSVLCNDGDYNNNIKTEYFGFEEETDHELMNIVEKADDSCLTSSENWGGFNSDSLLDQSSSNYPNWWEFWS

[3] = molecular target: T1, RB-related protein; test: yeast two-hybrid screen, confirmed by retransformation
[4] = molecular target: T2, ATHB12; test: as above

Measured: binding

DRL1 (DEFORMED ROOT AND LEAF1) entire coding sequence as yeast two-hybrid bait (GAL4 DNA-BD fusion in pGBKT7) (from UniProt P04386 1-147; Q9LMH0 1-302)
binds: all assays above

Source: patent US20050044592A1
